# According to the supplement of paper PMC8728848:
# This is one part of the list.
# B1: GS7807G-bfa-506-18-506 (Bacteroides fragilis) (protein)
# chain: ASCDKFDEINTDPDATTKVTSSLLATGLLLDITSSSASKSFIYDELLAKQMAWGESMEDYQYNVFGRSGFGGYTTLINAQKMVESVSDDNVNAYDGLAHFIKAYKIFYMSMEMGDLPYEEALQGELGLVRPKYNTQKEVMNFILSDLETAYELFSTAKDFDGDPILGGSISKWKKATTAFQLKVLMHLSKKESDADLKVKERFARIVASGSLMESNEDNLQMKYADKANTVYPFHNTNTKHAGYAMLSTMLIDKFKATGDIRMFYYAKPAKAKLNEGVTADSWDAYIGTDPSLPFEQIEKAYATEQYSGFNARYTDYPSGEPVVRLGYAEQNFILAEAAVRGWISGDASAYYKKAIRAHMEFIASNTPDEEVYHHGHPITEEAIAAFLETPAIQLSGEKEEDIEKILTQRYLASFMQHPYDVYYDYRRTGYPVLPINPATNRNTMNDRLPMRWMYPKSESDYNLEHQNEALERQFGGVDDVNKLMWILQ
# Tests used:
# Experiment in all cases: glycan array binding signal (z-score within array); higher = stronger binding
# Details in all cases: glycan notation: IUPAC condensed, linker removed
# [1] = target: Kdn(a2-3)Gal(b1-4)Glc
# How it was run: (§1)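 Arrays were curated from the Consortium for Functional Glycomics database, 3228 in total, and kept only where the protein sequence was available. Binding is expressed as a within-array Z-score. This score was averaged across arrays of the same protein sequence at different concentrations or buffers and across linkers, and negative values can be read as non-binding.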
# [2] = target: Kdn(a2-3)Gal(b1-4)GlcNAc
# How it was run: as §1
# [3] = target: Kdn(a2-3)Gal(b1-4)[Fuc(a1-3)]GlcNAc
# How it was run: as §1
# [4] = target: Kdn(a2-6)Gal(b1-4)GlcNAc
# How it was run: as §1
# [5] = target: Man(a1-2)Man(a1-2)Man(a1-3)Man
# How it was run: as §1
# [6] = target: Man(a1-2)Man(a1-2)Man(a1-6)[Man(a1-3)]Man
# How it was run: as §1
# [7] = target: Man(a1-2)Man(a1-3)Man
# How it was run: as §1
# [8] = target: Man(a1-2)Man(a1-3)[Man(a1-2)Man(a1-6)]Man
# How it was run: as §1
# [9] = target: Man(a1-2)Man(a1-3)[Man(a1-2)Man(a1-6)]Man(a1-6)[Man(a1-2)Man(a1-2)Man(a1-3)]Man
# How it was run: as §1
# [10] = target: Man(a1-2)Man(a1-3)[Man(a1-2)Man(a1-6)]Man(a1-6)[Man(a1-2)Man(a1-2)Man(a1-3)]Man(b1-4)GlcNAc(b1-4)GlcNAc
# How it was run: as §1
# [11] = target: Man(a1-2)Man(a1-3)[Man(a1-6)]Man(a1-6)[Man(a1-2)Man(a1-3)]Man(b1-4)GlcNAc(b1-4)GlcNAc
# How it was run: as §1
# [12] = target: Man(a1-2)Man(a1-6)[Man(a1-3)]Man(a1-6)[Man(a1-2)Man(a1-2)Man(a1-3)]Man
# How it was run: as §1
# [13] = target: Man(a1-2)Man(a1-6)[Man(a1-3)]Man(a1-6)[Man(a1-2)Man(a1-2)Man(a1-3)]Man(b1-4)GlcNAc(b1-4)GlcNAc
# How it was run: as §1
# [14] = target: Man(a1-3)[Man(a1-6)]Man
# How it was run: as §1
# [15] = target: Man(a1-3)[Man(a1-6)]Man(a1-6)[Man(a1-2)Man(a1-3)]Man(b1-4)GlcNAc(b1-4)GlcNAc
# How it was run: as §1
# [16] = target: Man(a1-3)[Man(a1-6)]Man(a1-6)[Man(a1-3)]Man
# How it was run: as §1
# [17] = target: Man(a1-3)[Man(a1-6)]Man(a1-6)[Man(a1-3)]Man(b1-4)GlcNAc(b1-4)GlcNAc
# How it was run: as §1
# [18] = target: Man(a1-3)[Man(a1-6)]Man(b1-4)GlcNAc(b1-4)GlcNAc
# How it was run: as §1
# [19] = target: Man(a1-3)[Man(a1-6)]Man(b1-4)GlcNAc(b1-4)[Fuc(a1-6)]GlcNAc
# How it was run: as §1
# [20] = target: Man(a1-6)Man
# How it was run: as §1
# [21] = target: Man(b1-4)GlcNAc
# How it was run: as §1
# [22] = target: MurNAc(b1-4)GlcNAc
# How it was run: as §1
# [23] = target: Neu5Ac(a2-3)Gal
# How it was run: as §1
# [24] = target: Neu5Ac(a2-3)Gal(b1-3)GalNAc
# How it was run: as §1
# [25] = target: Neu5Ac(a2-3)Gal(b1-3)GalNAc(b1-3)Gal(a1-4)Gal(b1-4)Glc
# How it was run: as §1
# [26] = target: Neu5Ac(a2-3)Gal(b1-3)GalNAc(b1-4)[Neu5Ac(a2-3)]Gal(b1-4)Glc
# How it was run: as §1
# [27] = target: Neu5Ac(a2-3)Gal(b1-3)GalNAc(b1-4)[Neu5Ac(a2-8)Neu5Ac(a2-3)]Gal(b1-4)Glc
# How it was run: as §1
# [28] = target: Neu5Ac(a2-3)Gal(b1-3)GalNAc6S
# How it was run: as §1
# [29] = target: Neu5Ac(a2-3)Gal(b1-3)GlcNAc
# How it was run: as §1
# [30] = target: Neu5Ac(a2-3)Gal(b1-3)GlcNAc(b1-2)Man
# How it was run: as §1
# [31] = target: Neu5Ac(a2-3)Gal(b1-3)GlcNAc(b1-2)Man(a1-3)[GlcNAc(b1-4)][Neu5Ac(a2-3)Gal(b1-3)GlcNAc(b1-2)Man(a1-6)]Man(b1-4)GlcNAc(b1-4)GlcNAc
# How it was run: as §1
# [32] = target: Neu5Ac(a2-3)Gal(b1-3)GlcNAc(b1-2)Man(a1-3)[Neu5Ac(a2-3)Gal(b1-3)GlcNAc(b1-2)Man(a1-6)]Man(b1-4)GlcNAc(b1-4)GlcNAc
# How it was run: as §1
# [33] = target: Neu5Ac(a2-3)Gal(b1-3)GlcNAc(b1-3)Gal(b1-3)GlcNAc
# How it was run: as §1
# [34] = target: Neu5Ac(a2-3)Gal(b1-3)GlcNAc(b1-3)Gal(b1-4)GlcNAc
# How it was run: as §1
# [35] = target: Neu5Ac(a2-3)Gal(b1-3)GlcNAc(b1-3)GalNAc
# How it was run: as §1
# [36] = target: Neu5Ac(a2-3)Gal(b1-3)GlcNAc(b1-4)Gal(b1-4)Glc
# How it was run: as §1
# [37] = target: Neu5Ac(a2-3)Gal(b1-3)GlcNAc(b1-6)GalNAc
# How it was run: as §1
# [38] = target: Neu5Ac(a2-3)Gal(b1-3)GlcNAc6S
# How it was run: as §1
binder,measurement,setting,value
B1,glycan array binding signal (z-score),[1],-0.306
same,glycan array binding signal (z-score),[2],-0.294
same,glycan array binding signal (z-score),[3],2.05
same,glycan array binding signal (z-score),[4],-0.702
same,glycan array binding signal (z-score),[5],-0.899
same,glycan array binding signal (z-score),[6],-0.563
same,glycan array binding signal (z-score),[7],-0.825
same,glycan array binding signal (z-score),[8],-1.08
same,glycan array binding signal (z-score),[9],-0.723
same,glycan array binding signal (z-score),[10],-0.63
same,glycan array binding signal (z-score),[11],-0.499
same,glycan array binding signal (z-score),[12],-0.659
same,glycan array binding signal (z-score),[13],-0.229
same,glycan array binding signal (z-score),[14],-0.341
same,glycan array binding signal (z-score),[15],0.878
same,glycan array binding signal (z-score),[16],-0.722
same,glycan array binding signal (z-score),[17],3.61
same,glycan array binding signal (z-score),[18],-0.876
same,glycan array binding signal (z-score),[19],-0.696
same,glycan array binding signal (z-score),[20],-0.521
same,glycan array binding signal (z-score),[21],-0.28
same,glycan array binding signal (z-score),[22],-0.417
same,glycan array binding signal (z-score),[23],-0.779
same,glycan array binding signal (z-score),[24],-0.044
same,glycan array binding signal (z-score),[25],-0.786
same,glycan array binding signal (z-score),[26],-0.428
same,glycan array binding signal (z-score),[27],0.012
same,glycan array binding signal (z-score),[28],-0.744
same,glycan array binding signal (z-score),[29],-0.636
same,glycan array binding signal (z-score),[30],2.81
same,glycan array binding signal (z-score),[31],-0.528
same,glycan array binding signal (z-score),[32],-0.478
same,glycan array binding signal (z-score),[33],-0.944
same,glycan array binding signal (z-score),[34],-0.475
same,glycan array binding signal (z-score),[35],-0.851
same,glycan array binding signal (z-score),[36],-0.981
same,glycan array binding signal (z-score),[37],-0.197
same,glycan array binding signal (z-score),[38],-0.396

# Another view of part of the listing above.
binder | measurement | setting | value
B1 | glycan array binding signal (z-score) | [4] | -0.702
same | glycan array binding signal (z-score) | [5] | -0.899
same | glycan array binding signal (z-score) | [6] | -0.563
